The other results are listed elsewhere or left out.
What was measured:
Test in all cases: log2 fold change, soluble protein after heating vs DMSO (PISA); higher = thermal stabilisation; K562 lysate, 10 uM; active = over 0.2 and 3.5 SD of the protein, either way, in both replicates (recomputed)
[1] = compound: C1=CC=C(C=C1)[C@H](COC2=CC3=C(C=C2)NC(=O)N3)NC(=O)C4=CC=CN(C4=O)CC5=CC(=C(C=C5)F)F
In short: (§1)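 A 30 min treatment with 10 μM compound was applied to crude K562 extract at 1 mg/mL protein in PBS pH 7.4 with 1 mM MgCl2. Heating for 3 min spanned 48°C-58°C, after which aliquots were pooled, adjusted to 0.5% NP-40 at 4°C and spun at 21,000xg for 90 min. TMTpro 16plex LC-MS/MS of the supernatant, with channel sums equalised, gave values recorded as log-two fold change in thermal stability against solvent controls, from duplicates.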

Chains of the proteins cited; added tags and fusions are not shown. Lines headed by an entry give the natural chain unless they say otherwise; changes in a name come on top.
UniProt Q9UPQ3: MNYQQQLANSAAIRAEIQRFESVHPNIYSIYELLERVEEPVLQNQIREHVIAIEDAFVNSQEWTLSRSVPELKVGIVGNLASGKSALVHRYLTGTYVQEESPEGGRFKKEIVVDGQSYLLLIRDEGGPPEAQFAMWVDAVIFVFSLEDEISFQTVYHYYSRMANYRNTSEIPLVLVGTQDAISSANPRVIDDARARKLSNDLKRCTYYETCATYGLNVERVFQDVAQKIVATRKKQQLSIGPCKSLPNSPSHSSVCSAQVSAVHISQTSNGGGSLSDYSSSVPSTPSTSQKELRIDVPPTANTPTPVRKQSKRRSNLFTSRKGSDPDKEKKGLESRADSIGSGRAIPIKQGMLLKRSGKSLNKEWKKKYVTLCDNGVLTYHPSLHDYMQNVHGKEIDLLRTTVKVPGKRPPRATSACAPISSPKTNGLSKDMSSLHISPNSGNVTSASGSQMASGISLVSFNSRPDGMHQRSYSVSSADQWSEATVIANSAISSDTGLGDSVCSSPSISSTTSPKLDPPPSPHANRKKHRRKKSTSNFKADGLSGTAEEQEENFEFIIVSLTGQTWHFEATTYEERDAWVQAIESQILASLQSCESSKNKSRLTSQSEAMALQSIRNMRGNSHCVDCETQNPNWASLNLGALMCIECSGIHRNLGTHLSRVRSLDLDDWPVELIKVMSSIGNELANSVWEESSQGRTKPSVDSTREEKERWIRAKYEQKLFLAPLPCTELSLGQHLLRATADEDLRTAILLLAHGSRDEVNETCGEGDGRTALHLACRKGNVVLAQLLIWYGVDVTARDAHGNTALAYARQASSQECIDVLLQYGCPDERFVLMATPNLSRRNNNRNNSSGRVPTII
UniProt P30566: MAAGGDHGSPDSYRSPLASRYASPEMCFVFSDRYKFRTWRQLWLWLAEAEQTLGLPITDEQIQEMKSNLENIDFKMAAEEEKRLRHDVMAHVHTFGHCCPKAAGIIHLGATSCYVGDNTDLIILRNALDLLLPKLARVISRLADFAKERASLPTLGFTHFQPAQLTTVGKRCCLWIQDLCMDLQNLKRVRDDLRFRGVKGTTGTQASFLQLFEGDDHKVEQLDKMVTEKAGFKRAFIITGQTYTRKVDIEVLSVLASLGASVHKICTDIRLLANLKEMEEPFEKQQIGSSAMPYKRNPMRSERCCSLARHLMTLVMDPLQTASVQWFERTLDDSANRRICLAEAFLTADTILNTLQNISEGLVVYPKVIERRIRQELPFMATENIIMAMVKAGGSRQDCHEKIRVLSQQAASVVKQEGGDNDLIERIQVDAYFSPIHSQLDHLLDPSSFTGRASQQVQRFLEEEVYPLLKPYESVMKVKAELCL
UniProt Q9BV57: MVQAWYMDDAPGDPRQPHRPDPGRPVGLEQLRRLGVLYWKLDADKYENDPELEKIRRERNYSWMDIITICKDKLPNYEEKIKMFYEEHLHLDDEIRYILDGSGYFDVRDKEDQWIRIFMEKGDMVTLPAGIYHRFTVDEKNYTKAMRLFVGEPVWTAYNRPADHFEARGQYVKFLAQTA
UniProt P11766: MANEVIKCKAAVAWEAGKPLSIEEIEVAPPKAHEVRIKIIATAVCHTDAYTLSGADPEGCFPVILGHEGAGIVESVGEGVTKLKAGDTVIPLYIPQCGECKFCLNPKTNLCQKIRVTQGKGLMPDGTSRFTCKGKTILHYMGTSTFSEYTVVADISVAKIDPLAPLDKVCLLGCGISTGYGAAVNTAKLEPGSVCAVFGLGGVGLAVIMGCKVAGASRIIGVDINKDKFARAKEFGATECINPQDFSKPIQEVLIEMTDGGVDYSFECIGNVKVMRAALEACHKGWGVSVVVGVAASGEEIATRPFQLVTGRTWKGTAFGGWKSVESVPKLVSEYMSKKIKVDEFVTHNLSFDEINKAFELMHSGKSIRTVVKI
UniProt O43707, whole entry, looked up: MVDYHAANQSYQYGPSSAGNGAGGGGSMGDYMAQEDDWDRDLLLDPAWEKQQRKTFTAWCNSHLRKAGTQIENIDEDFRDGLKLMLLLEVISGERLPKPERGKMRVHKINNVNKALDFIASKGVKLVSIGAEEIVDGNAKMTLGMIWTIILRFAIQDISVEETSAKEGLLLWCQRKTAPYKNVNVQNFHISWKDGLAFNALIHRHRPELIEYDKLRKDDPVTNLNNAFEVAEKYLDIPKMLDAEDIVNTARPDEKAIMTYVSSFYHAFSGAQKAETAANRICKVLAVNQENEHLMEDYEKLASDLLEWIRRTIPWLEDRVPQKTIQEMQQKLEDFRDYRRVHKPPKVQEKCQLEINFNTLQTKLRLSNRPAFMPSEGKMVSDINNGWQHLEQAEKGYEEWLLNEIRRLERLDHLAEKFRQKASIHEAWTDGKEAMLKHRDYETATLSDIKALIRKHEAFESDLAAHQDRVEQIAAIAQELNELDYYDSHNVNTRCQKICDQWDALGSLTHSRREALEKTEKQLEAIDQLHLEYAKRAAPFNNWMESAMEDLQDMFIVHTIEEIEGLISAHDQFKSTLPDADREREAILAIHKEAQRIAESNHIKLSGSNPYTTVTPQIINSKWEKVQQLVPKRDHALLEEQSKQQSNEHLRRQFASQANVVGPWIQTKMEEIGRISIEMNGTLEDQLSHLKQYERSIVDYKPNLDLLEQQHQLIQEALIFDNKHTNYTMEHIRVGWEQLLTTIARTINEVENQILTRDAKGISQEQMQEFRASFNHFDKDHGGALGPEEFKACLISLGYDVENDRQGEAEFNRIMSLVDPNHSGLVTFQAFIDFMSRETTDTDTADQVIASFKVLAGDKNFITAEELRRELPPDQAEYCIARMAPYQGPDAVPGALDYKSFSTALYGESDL
UniProt Q9NRZ7: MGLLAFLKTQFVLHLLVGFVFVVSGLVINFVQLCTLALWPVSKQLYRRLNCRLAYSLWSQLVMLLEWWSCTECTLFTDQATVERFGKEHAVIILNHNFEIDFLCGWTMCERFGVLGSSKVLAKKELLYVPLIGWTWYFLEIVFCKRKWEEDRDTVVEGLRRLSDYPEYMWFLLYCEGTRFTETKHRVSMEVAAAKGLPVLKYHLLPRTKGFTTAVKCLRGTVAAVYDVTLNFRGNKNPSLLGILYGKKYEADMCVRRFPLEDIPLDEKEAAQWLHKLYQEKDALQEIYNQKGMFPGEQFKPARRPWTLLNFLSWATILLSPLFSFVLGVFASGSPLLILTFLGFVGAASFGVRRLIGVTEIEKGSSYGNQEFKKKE
UniProt P42330: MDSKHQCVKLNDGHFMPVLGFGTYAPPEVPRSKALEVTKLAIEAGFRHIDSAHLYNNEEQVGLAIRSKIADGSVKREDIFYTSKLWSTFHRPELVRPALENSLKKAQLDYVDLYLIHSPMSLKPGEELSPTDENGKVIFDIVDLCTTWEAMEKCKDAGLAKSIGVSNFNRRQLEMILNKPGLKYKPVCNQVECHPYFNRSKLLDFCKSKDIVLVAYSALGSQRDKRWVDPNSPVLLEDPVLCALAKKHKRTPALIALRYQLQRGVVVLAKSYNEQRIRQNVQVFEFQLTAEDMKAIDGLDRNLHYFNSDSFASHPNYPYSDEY
UniProt Q9UHB7: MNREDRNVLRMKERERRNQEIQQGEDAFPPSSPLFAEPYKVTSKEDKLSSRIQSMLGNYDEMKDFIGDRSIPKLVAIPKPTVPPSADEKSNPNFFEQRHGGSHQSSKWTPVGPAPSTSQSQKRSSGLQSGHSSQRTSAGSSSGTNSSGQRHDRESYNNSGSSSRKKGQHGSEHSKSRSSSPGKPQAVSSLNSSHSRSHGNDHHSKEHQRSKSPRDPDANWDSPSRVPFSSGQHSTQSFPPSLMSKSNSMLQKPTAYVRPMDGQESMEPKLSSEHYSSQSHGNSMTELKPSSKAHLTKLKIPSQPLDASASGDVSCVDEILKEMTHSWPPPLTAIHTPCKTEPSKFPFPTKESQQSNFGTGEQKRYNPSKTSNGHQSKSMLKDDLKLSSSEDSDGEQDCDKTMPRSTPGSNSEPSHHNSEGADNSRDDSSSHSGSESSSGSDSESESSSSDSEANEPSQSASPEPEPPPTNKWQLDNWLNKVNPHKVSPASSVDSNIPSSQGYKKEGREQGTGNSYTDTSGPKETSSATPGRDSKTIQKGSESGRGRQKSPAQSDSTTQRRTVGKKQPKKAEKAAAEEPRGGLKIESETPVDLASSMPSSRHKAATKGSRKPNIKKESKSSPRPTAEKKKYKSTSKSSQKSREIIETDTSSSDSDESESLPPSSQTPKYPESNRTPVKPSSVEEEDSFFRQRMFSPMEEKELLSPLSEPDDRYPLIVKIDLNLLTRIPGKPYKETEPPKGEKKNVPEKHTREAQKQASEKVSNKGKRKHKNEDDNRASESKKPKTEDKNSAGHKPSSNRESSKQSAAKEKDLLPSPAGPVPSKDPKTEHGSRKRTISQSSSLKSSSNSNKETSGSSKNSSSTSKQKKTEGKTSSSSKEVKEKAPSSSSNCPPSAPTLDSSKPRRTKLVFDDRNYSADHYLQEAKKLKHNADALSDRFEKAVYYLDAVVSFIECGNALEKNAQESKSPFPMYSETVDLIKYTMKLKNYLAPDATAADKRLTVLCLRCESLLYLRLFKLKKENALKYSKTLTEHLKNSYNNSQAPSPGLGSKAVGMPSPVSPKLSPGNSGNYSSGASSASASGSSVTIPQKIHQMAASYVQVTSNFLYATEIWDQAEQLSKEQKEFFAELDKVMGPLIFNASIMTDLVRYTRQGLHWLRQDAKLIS
UniProt Q9GZN1, whole entry, looked up: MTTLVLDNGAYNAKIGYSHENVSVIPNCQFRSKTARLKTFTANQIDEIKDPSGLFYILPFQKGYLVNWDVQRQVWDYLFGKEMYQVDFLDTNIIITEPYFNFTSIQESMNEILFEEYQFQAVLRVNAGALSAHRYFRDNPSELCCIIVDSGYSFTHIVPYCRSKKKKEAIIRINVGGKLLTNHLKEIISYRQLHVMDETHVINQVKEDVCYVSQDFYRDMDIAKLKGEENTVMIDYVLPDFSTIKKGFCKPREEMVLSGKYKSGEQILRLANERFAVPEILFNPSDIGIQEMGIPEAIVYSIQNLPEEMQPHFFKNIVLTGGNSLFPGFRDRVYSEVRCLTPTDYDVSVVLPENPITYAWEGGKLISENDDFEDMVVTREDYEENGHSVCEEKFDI
UniProt Q8N142: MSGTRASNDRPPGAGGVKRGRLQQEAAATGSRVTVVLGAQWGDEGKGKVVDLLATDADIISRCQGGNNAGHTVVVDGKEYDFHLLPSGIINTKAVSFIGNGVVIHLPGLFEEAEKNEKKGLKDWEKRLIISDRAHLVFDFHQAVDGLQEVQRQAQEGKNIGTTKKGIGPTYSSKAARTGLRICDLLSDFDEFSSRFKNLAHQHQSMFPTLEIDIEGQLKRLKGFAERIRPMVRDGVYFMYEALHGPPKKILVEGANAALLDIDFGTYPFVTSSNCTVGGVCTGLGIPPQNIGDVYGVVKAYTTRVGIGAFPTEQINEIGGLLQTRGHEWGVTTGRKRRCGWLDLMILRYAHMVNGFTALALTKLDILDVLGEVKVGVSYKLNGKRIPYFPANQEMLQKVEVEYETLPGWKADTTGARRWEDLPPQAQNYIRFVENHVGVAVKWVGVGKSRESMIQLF
UniProt Q6ULP2: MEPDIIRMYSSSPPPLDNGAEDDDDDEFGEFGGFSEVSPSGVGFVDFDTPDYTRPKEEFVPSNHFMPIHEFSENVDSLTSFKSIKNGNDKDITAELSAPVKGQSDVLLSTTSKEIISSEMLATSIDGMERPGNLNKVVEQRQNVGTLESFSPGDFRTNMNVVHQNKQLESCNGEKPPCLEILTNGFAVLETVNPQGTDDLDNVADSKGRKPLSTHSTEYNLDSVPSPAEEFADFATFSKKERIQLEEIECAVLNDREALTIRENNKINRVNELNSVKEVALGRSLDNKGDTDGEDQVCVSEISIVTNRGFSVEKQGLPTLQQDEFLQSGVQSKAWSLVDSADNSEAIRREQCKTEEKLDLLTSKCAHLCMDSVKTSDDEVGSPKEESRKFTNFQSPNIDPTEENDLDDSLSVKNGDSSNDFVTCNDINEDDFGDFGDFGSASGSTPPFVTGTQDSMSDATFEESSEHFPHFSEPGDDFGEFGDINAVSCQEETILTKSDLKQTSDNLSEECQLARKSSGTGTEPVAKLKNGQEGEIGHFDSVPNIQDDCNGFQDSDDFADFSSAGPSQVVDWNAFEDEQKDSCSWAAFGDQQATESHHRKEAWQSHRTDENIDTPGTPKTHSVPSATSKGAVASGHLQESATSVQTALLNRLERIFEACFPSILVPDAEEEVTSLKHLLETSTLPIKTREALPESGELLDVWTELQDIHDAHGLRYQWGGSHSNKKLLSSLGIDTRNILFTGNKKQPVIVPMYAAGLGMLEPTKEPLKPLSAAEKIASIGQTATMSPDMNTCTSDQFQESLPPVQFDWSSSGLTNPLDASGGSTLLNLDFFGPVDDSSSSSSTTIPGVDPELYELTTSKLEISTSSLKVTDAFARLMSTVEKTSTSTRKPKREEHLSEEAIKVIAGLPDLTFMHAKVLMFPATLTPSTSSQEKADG

[2] = compound: CC1=C(SC2=C1C(=N[C@H](C3=NN=C(N32)C)CC(=O)N)C4=CC=C(C=C4)Cl)C
In short: as §1

[3] = compound: CC1=C2C(=CC=C1)N=C(N(C2=O)C3=CC=CC=C3C)CN4C=NC5=C(N=CN=C54)N
In short: as §1

[4] = compound: Cc1sc2c(c1C)C(c1ccc(Cl)cc1)=N[C@@H](CC(=O)OC(C)(C)C)c1nnc(C)n1-2
In short: as §1

[5] = compound: c1ccc([C@@H]2C[C@H]2NC2CCNCC2)cc1
In short: as §1

Target	log2 fold change [1]	log2 fold change [2]	log2 fold change [3]	log2 fold change [4]	log2 fold change [5]
AKAP8 (UniProt O43823)	inactive: -0.02	inactive: 0.073	inactive: -0.016	inactive: -0.009	inactive: -0.014
ACSS2 isoform 2 (UniProt Q9NR19)	inactive: -0.004	inactive: -0.009	inactive: -0.019	inactive: 0.008	inactive: 0.048
AKAP9 (UniProt Q99996)	inactive: -0.032	inactive: -0.013	inactive: 0.063	inactive: -0.033	inactive: 0.036
AFG3L2 (UniProt Q9Y4W6)	inactive: -0.044	inactive: 0.034	inactive: 0.035	inactive: -0.025	inactive: 0.03
AHSA1 (UniProt O95433)	inactive: 0.047	inactive: -0.009	inactive: 0	inactive: -0.012	inactive: 0.01
AGAP1 (UniProt Q9UPQ3)	inactive: 0.022	inactive: -0.002	inactive: 0.134	inactive: -0.097	inactive: 0.042
ACTR1B (UniProt P42025)	inactive: -0.009	inactive: 0.071	inactive: 0.015	inactive: -0.03	inactive: 0.048
ADSL (UniProt P30566)	inactive: 0.039	inactive: -0.006	inactive: 0.017	inactive: 0.003	inactive: 0.06
ADI1 (UniProt Q9BV57)	inactive: -0.008	inactive: 0.064	inactive: 0.028	inactive: -0.047	inactive: -0.034
ADAL (UniProt Q6DHV7)	inactive: 0.022	inactive: 0.007	inactive: 0.013	inactive: -0.044	inactive: 0.042
ADH5 (UniProt P11766)	inactive: -0.01	inactive: 0.023	inactive: -0.016	inactive: 0.014	inactive: 0
AHCYL2 (UniProt Q96HN2)	inactive: 0.007	inactive: 0.038	inactive: 0.045	inactive: 0.286	inactive: -0.081
AHNAK (UniProt Q09666)	inactive: -0.019	inactive: 0.002	inactive: -0.01	inactive: 0.01	inactive: -0.011
ACTL6A (UniProt O96019)	inactive: 0.005	inactive: 0.011	inactive: 0.037	inactive: 0.006	inactive: 0.021
ACTB, A0A2R8Y793	inactive: -0.014	inactive: 0.022	inactive: -0.003	inactive: 0.025	inactive: 0.013
AIP (UniProt O00170)	inactive: 0.012	inactive: -0.023	inactive: -0.006	inactive: 0.025	inactive: 0.125
AGTPBP1 (UniProt Q9UPW5)	inactive: 0.131	inactive: -0.13	inactive: 0.051	inactive: -0.042	inactive: 0.03
AGPAT5 (UniProt Q9NUQ2)	inactive: 0.011	inactive: 0.047	inactive: -0.002	inactive: -0.003	inactive: -0.04
ACTN4 (UniProt O43707)	inactive: 0.025	inactive: -0.013	inactive: -0.013	inactive: -0.016	inactive: -0.025
AGPAT3 isoform 3 (UniProt Q9NRZ7)	inactive: -0.06	inactive: 0.043	inactive: 0.002	inactive: -0.018	inactive: -0.012
AKR1C3 (UniProt P42330)	inactive: 0.031	inactive: 0.05	inactive: 0.022	inactive: -0.04	inactive: 0.031
AFF4 (UniProt Q9UHB7)	active: -0.362	inactive: -0.269	inactive: -0.081	inactive: -0.026	inactive: -0.052
ACTR6 (UniProt Q9GZN1)	inactive: 0.031	inactive: -0.047	inactive: 0.022	inactive: 0.054	inactive: -0.101
ADSS1 (UniProt Q8N142)	inactive: 0.047	inactive: -0.03	inactive: 0.012	inactive: 0.021	inactive: 0.008
AFTPH isoform 9 (UniProt Q6ULP2)	inactive: -0.024	inactive: 0.009	inactive: -0.061	inactive: 0.005	inactive: -0.027

Looked up above:
log2 fold change [2], AKR1C3 (UniProt P42330) reads inactive: 0.05
log2 fold change [5], ACSS2 isoform 2 (UniProt Q9NR19) reads inactive: 0.048

Reference: the supplement of paper PMC10849652
